In PubChem BioAssay AID1487 (National Center for Advancing Translational Sciences (NCATS), 2009) one finds AC50 data, which are given here for 56 compounds.

Each structure is given as a SMILES string. Some of the results follow. Shown are side measurements of this screen, not its main read-out; they come without a call. Most of these compounds were active or inconclusive in the main read-out, so they are no random draw. The note in brackets gives the kind of curve behind each potency; many fits are weak.

A short description of this experiment: qHTS Assay for Modulators of Lamin A Splicing. The settings on record: HeLa LMNA splicing GFP/RFP minigene ratio, 48 h. The procedure, abridged:
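S3 HeLa cells stably expressing lamin A-EGFP splicing minigene plus DsRed2, 600 cells/well, 48 h compound exposure at 37C. Laser-scanning cytometry; analysed as GFP (500-530 nm)/RFP (575-640 nm) total intensity ratio; 0.5% DMSO vehicle.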

Setting [1] is: measured here: GFP splicing reporter channel.
The mark [2] stands for this setting: measured here: RFP viability control channel.

In general, AC50 refers to the concentration at which the activity in the assay is half-maximal. Turning to `Cc1cccc2[nH]c3c(N4CCC5(CC4)OCCO5)ncnc3c12`, the AC50 runs as follows: under setting [1], 8.91 µM [rising, partial curve]; under setting [2], 11.2 µM [rising, partial curve, poor fit].
As to `S=C(Nc1ccc(Cl)cc1)N1CCN(C2CCCCC2)CC1`, the AC50 under setting [2] is 6.31 µM [rising, partial curve].
For `CC(C)(C)N(NC(=O)Nc1ccc(Cl)c(Cl)c1)C(=O)c1ccccc1`, the AC50 was 35.5 µM [falling, single point] under setting [1] and 35.5 µM [falling, single point] under setting [2].
As to `CSc1ccc(S(=O)(=O)N2CCN(Cc3ccc4c(c3)OCO4)CC2)cc1`, the AC50 reads like this: under setting [1], 35.5 µM [rising, single point]; under setting [2], 35.5 µM [rising, single point].
On to `CNS(=O)(=O)c1ccc(Oc2ccc(S(=O)(=O)NC)cc2)cc1`, for which the AC50 under setting [2] is 11.2 µM [rising, single point].
On to `COc1ccc(C(=O)NC(=S)N2CCCCC2)cc1[N+](=O)[O-]`, for which the AC50 under setting [2] is 0.224 µM [rising, full curve, poor fit].
With `CCOC(=O)N1CCC(NC(=O)c2cc(S(=O)(=O)N3CCc4ccccc43)cn2C)CC1`, the AC50 reads like this: under setting [1], 5.62 µM [rising, partial curve, poor fit]; under setting [2], 11.2 µM [rising, partial curve, poor fit].
As for `Cc1cc(C)cc(SCc2noc(C(=O)NC(C)C)c2C(=O)O)c1`, the AC50 under setting [1] is 0.112 µM [falling, partial curve].
Consider `CSc1nc2c([nH]c3ccccc32)c(=O)n1-c1ccc(F)cc1`, for which the AC50 by setting is: under setting [1], 11.2 µM [falling, single point]; under setting [2], 12.6 µM [falling, partial curve, poor fit].
For the compound `S=C1NC2(CCCCC2)Nc2ccccc21`, the AC50 under setting [1] is 0.0447 µM [falling, full curve, poor fit].
`CC(=O)N(C)C1=C(N2CCOCC2)C(=O)c2ccccc2C1=O`: the AC50 under setting [2] was 14.1 µM [rising, partial curve].
For `CCOc1ccc(NC(=O)C(=O)N/N=C/c2ccccc2F)cc1`, the AC50 under setting [1] is 0.562 µM [falling, full curve] and the AC50 under setting [2] is 0.501 µM [falling, partial curve, poor fit].
For `CC(=O)c1cc(-c2ccccc2)n(CCC(=O)Nc2cc(C)cc(C)c2)c1C`, under setting [2], the AC50 is 31.6 µM [rising, single point].
Turning to `CCOCC(=O)Nc1nnc(COc2ccc(Cl)cc2)s1`, under setting [2], the AC50 was 12.6 µM [rising, partial curve, poor fit].
Turning to `O=c1[nH]c2cc(Cl)ccc2n1-c1ccccc1`, the AC50 under setting [1] is 6.31 µM [rising, partial curve, poor fit] and the AC50 under setting [2] was 11.2 µM [rising, partial curve].
`O=[N+]([O-])c1ccc(-c2cnc(SC(c3ccccc3)c3ccccc3)[nH]2)cc1`: under setting [2], the AC50 is 22.4 µM [rising, single point].
Regarding `O=C(COCc1cc(-c2ccco2)on1)Nc1ccc(OC(F)(F)F)cc1`, under setting [2], the AC50 is 10 µM [falling, partial curve].
In the case of `COc1cccc(OC)c1C(=O)Nc1ccc2c(c1)CCCN2S(=O)(=O)c1ccc(C)cc1`, the AC50 under setting [1] is 12.6 µM [falling, partial curve, poor fit].
`COc1ccccc1CN1CCNC(=O)C1CC(=O)N(C)Cc1cnccn1` (stereo unspecified): the AC50 under setting [1] is 0.0355 µM [falling, full curve, poor fit].
For `Clc1ccccc1Cn1nnc2c(Nc3ccccc3)ncnc21`, the AC50 is 17.8 µM [rising, partial curve, poor fit] under setting [1] and 14.1 µM [rising, partial curve] under setting [2].
Turning to `CCOC(=O)c1ccc(NC(=S)NNC(=O)C2(C)CC2(Cl)Cl)cc1` (stereo unspecified), the AC50 under setting [2] was 25.1 µM [rising, single point].
For `O=C(NC1CCCC1)c1cc(-c2cccs2)on1`, the AC50 is 35.5 µM [falling, single point] under setting [1] and 4.47 µM [rising, single point] under setting [2].
Turning to `COc1cccc(/C(C#N)=C/c2c(-c3ccc(Cl)cc3)nc3c(C)cccn23)c1`, the concentration at half-maximal activity (AC50) under setting [2] is 22.4 µM [rising, single point].
Consider `O=C(Cn1c(=O)c(=O)n(Cc2ccccc2)c2ccc(Cl)cc21)Nc1ccc(F)cc1F`, for which the concentration at half-maximal activity (AC50) under setting [2] was 2.82 µM [rising, full curve].
With `NNC(=O)COc1ncn(-c2ccccc2)n1`, under setting [1], the AC50 was 11.2 µM [rising, single point].
Regarding `COC(=O)c1ccc(NC2(C#N)C(=O)Nc3ccccc32)cc1` (stereo unspecified), under setting [2], the AC50 is 31.6 µM [rising, single point].
As to `CCOc1ccc(NC(=O)c2ccc(NC(=O)Cc3n[nH]c(=O)c4ccccc34)cc2)cc1`, the AC50 reads like this: under setting [1], 0.316 µM [falling, full curve, poor fit]; under setting [2], 0.251 µM [falling, full curve].
With `CN1CCN(CC(=O)N(C)c2nc(-c3ccccc3)cs2)CC1`, the AC50 under setting [2] is 0.282 µM [rising, full curve, poor fit].
For `O=C(NC(=S)Nc1ccc(Cl)cn1)C(c1ccccc1)c1ccccc1`, under setting [2], the AC50 is 35.5 µM [rising, single point].
Still for that read-out and setting: under `CCOC(=O)c1sc2ccccc2c1OC(=O)c1ccccc1` stands 31.6 µM [rising, single point]; under `COc1cc(-c2c(C#N)c(=O)[nH]c3c2c(C)nn3-c2ccccc2)ccc1O`, 35.5 µM [rising, single point]; under `Cc1cc(C)c2nc(NNC(=O)c3cc(-c4cccs4)nc4ccccc34)sc2c1`, 14.1 µM [rising, partial curve].
In the case of `CC(C)(C)NC(=O)C(=O)NNC(=O)C12CC3CC(CC(C3)C1)C2`, the AC50 under setting [2] is 1.26 µM [falling, full curve].
On the same count and under the same terms, under `Cc1noc(/C=C/c2ccco2)c1S(=O)(=O)N1CCC(C(=O)N2c3ccccc3CC2C)CC1` (stereo unspecified) stands 10 µM [rising, partial curve, poor fit].
Consider `CCC1C(c2ccccc2)N(C)C(c2ccccc2)CC1(O)c1ccccc1` (stereo unspecified), for which the AC50 under setting [1] is 12.6 µM [falling, partial curve] and the concentration at half-maximal activity (AC50) under setting [2] was 12.6 µM [falling, partial curve, poor fit].
With `COC(=O)c1ccc(Sc2nnnn2-c2ccccc2)c([N+](=O)[O-])c1`, the AC50 under setting [1] was 17.8 µM [rising, single point].
As for `CCCOc1ccc(C(=O)C(CN2CCOCC2)c2ccccc2)cc1` (stereo unspecified), the AC50 is, setting by setting: under setting [1], 35.5 µM [falling, single point]; under setting [2], 35.5 µM [falling, single point].
For the compound `COc1ccccc1N(C(=O)c1ccncc1)c1nc(-c2ccc([N+](=O)[O-])cc2)cs1`, the AC50 under setting [1] is 20 µM [rising, single point] and the AC50 under setting [2] was 31.6 µM [rising, single point].
In the case of `Cc1ccc(NC(=S)N(CCCN2CCOCC2)Cc2ccco2)cc1Cl`, the concentration at half-maximal activity (AC50) under setting [1] was 15.8 µM [rising, single point] and the half-maximal activity concentration (AC50) under setting [2] is 15.8 µM [rising, single point].
`COC(=O)c1c(NC(NC(=O)C(C)C)C(Cl)(Cl)Cl)sc2c1CCCC2` (stereo unspecified): the AC50 was 31.6 µM [rising, single point] under setting [1] and 35.5 µM [rising, single point] under setting [2].
`CSC(SC)=C(C#N)C(=O)c1ccccc1`: the AC50 under setting [1] was 3.16 µM [falling, partial curve] and the AC50 under setting [2] was 3.16 µM [falling, full curve].
With `COC(=O)c1ccc(CSc2nnc3sc4ccccc4n23)o1`, under setting [1], the AC50 is 1.58 µM [falling, partial curve, poor fit].
As for `CCN1C(=Nc2ccc(Cl)cc2)SC/C1=C\C(=O)OC`, under setting [2], the concentration at half-maximal activity (AC50) is 15.8 µM [rising, single point].
On to `CC1CN(S(=O)(=O)c2ccc(C(=O)Nc3nc(-c4cc5ccccc5o4)cs3)cc2)CC(C)O1` (stereo unspecified), for which the AC50 was 0.562 µM [rising, full curve, poor fit] under setting [1] and 0.891 µM [rising, full curve] under setting [2].
For the compound `O=[N+]([O-])c1ccc(O)c(/C=N\N=C2c3ccccc3-c3ccccc32)c1`, under setting [2], the AC50 is 12.6 µM [rising, partial curve].
Take `CN1CC(c2ccccn2)C2(SC(=S)N(Cc3ccccc3)C2=O)C12C(=O)Nc1ccccc12` (stereo unspecified): the concentration at half-maximal activity (AC50) under setting [2] was 12.6 µM [falling, partial curve, poor fit].
`Cc1ccc(C)c(NC(=O)c2nc(-c3ccccc3)n(-c3ccccc3)n2)c1`: the AC50 under setting [1] is 35.5 µM [rising, single point].
Regarding `COc1cc(CNc2ccc3[nH]c(=O)[nH]c3c2)cc(Br)c1OCc1ccccc1F`, the AC50 runs as follows: under setting [1], 0.0501 µM [falling, full curve]; under setting [2], 0.0282 µM [falling, full curve, poor fit].
With `Cc1cc(NC(=O)CSc2nc3ccccc3c(=O)n2C(C)c2ccccc2)no1` (stereo unspecified), the AC50 under setting [2] was 15.8 µM [rising, single point].
For the compound `NC(=O)CCCSc1nc2ccccc2[nH]1`, the AC50 under setting [2] was 0.112 µM [rising, single point].
In the case of `COc1ccc(/C=C/C(=O)c2ccncc2)c2ccccc12`, the AC50 under setting [1] was 35.5 µM [rising, single point] and the concentration at half-maximal activity (AC50) under setting [2] was 28.2 µM [rising, partial curve].
In the case of `CCNc1nc(-c2ccc(Cl)cc2)cs1`, the AC50 runs as follows: under setting [1], 11.2 µM [rising, partial curve]; under setting [2], 12.6 µM [rising, single point].
Consider `O=C(CSc1nc(-c2ccc(F)cc2)cc(C(F)(F)F)n1)NCc1cccs1`, for which, under setting [2], the AC50 was 0.00316 µM [rising, full curve, poor fit].
Still for that read-out and setting: under `Cc1ccc(-c2csc3ncnc(-n4nnc5ccccc54)c23)cc1` stands 10 µM [rising, partial curve, poor fit].
As for `COc1ccc(C(C(=O)NCc2ccccc2)N(Cc2ccco2)C(=O)c2cnccn2)cc1` (stereo unspecified), the AC50 under setting [1] was 0.562 µM [falling, full curve, poor fit].
In the case of `COc1cccc([C@@H]2Oc3ccc(OC)cc3C(=O)[C@H]2O)c1`, the AC50 under setting [1] is 35.5 µM [rising, single point].
